Laboratory results taken from patent US20130225543A1, “SPECIFIC REGULATION OF CYTOKINE LEVELS BY HDAC6 INHIBITORS” (Acetylon Pharmaceuticals, priority 2010, published 2013).
For part of these data: At least one structure is not confirmed: it was looked up by name or label, or the drawing left a doubt. Some of these results come from one statement about several compounds together.

Assays:
[1] = tested on: collagen induced arthritis; experiment: Collagen induced arthritis in rats; type: in vivo, female Lewis rats; conditions: unpaired two tailed t-test
[2] = tested on: collagen induced arthritis; experiment: Collagen induced arthritis in mice; type: in vivo, male DBA/1OlaHsd mice; conditions: 30 mg/kg, unpaired two tailed t-test
[3] = tested on: human PBMCs; experiment: LPS induced cytokine release from PBMCs; type: cell-based; conditions: 1 μM compound, 0.5 ng/ml LPS overnight

Molecule: O=C(NO)c1cnc(NC2(c3ccccc3)CC2)nc1 [ACY-738]
- Arthritis development, p versus vehicle ([1]; 10 mg/kg twice daily oral gavage): < 0.05
- Arthritis development, p versus vehicle ([1]; 30 mg/kg twice daily oral gavage): < 0.05

Molecule: Enbrel
- Arthritis development, p versus vehicle ([1]; subcutaneous injection on first and fourth day of ankle swelling): < 0.05

Molecule: COC(c1ccc(F)cc1)(c1ccc(F)cc1)c1ccc(C(=O)NCCCCCCC(=O)NO)cc1 [ACY-257]
- Disease score, p versus vehicle [2]: < 0.05

Molecule: C[C@@H]1C[C@H]2[C@@H]3CCC4=CC(=O)C=C[C@]4(C)[C@@]3(F)[C@@H](O)C[C@]2(C)[C@@]1(O)C(=O)CO [dexamethasone, reference compound]
- Number of LPS induced cytokines decreased (of eight) [3]: decreases the production of all cytokines induced by LPS

Molecule: O=C(CCCCCCNC(=O)c1cnc(N(c2ccccc2)c2ccccc2)nc1)NO [ACY-63]
- Disease score, p versus vehicle [2]: < 0.05
